These are yes or no findings as the source states them, for the method shown. In cells and extracts the contact can be indirect. Some binding calls cover weakened binding; strength is not graded here.
Columns and labels:
[1] = molecular target: dopamine D2 receptor (rat (endogenous in Sprague-Dawley rat striatum)) (UniProt P61169); experiment: proximity ligation; in situ PLA on coronal slices from rat brain (25 um) or monkey (30 um); anti-D1R PLUS and anti-D2R MINUS probes (Duolink); confocal microscopy; male and female animals
[2] = molecular target: dopamine D2 receptor (rat (endogenous in Sprague-Dawley rat striatum)) (UniProt P61169); experiment: co-IP; protein homogenates (250-300 ug) from rat NAc or CPu of male and female rats, anti-D2R antibody at 4 °C overnight, protein G/A, 3 washes with PBS-Tween; Western blot with anti-D1R antibody

Sequences of proteins named here, by UniProt entry; tags and fusion partners are left off.
UniProt P61169: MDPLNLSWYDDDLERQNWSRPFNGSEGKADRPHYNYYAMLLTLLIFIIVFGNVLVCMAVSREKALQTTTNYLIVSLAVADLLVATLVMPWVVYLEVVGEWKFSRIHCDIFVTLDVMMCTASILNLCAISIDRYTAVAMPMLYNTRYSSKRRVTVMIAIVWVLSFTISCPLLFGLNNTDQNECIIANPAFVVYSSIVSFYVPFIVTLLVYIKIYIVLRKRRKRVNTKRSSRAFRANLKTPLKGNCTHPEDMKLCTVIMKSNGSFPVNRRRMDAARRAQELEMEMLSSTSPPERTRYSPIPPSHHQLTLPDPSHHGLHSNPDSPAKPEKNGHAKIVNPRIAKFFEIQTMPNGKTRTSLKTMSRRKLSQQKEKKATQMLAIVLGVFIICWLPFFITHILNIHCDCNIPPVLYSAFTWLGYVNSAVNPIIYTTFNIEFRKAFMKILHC
UniProt P18901: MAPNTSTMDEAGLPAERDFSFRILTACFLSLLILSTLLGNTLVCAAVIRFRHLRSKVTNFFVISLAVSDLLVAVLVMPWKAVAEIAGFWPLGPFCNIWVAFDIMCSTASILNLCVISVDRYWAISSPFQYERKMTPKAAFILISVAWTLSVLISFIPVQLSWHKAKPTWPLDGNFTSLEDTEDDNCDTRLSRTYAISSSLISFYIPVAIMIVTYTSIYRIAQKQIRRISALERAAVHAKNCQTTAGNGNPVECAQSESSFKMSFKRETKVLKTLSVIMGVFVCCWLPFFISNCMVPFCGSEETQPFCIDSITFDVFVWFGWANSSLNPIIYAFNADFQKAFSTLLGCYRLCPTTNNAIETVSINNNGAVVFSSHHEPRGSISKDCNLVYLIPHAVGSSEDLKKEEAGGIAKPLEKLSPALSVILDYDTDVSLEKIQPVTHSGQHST

binding [1]: binds
binding [2]: binds
Substance: dopamine D1 receptor (from UniProt P18901 1-446)

Source: publication PMC7035642
